# Source: publication PMC2680039
# Construct, isoform or probe ends are uncertain for at least one entry. At least one result comes from cells or an extract, where the contact may be indirect. For part of these data: No signal at the amounts used counts as a negative.
# Experiments:
# [1] = test system: ΔNp63α (human (HaCaT keratinocytes)); test: competition with a labelled probe; conditions: EMSA: 5 µg HaCaT nuclear extract, end-labeled ds oligo, 5% native PAGE in 1x TBE at room temperature, binding buffer, salt and pH not given (cited), protein in an extract
# [2] = test system: ΔNp63α (human (HaCaT keratinocytes)); test: EMSA supershift; conditions: anti-ΔNp63 RR-14 or H-129 supershift, HaCaT nuclear extract; EMSA: 5 µg HaCaT nuclear extract, end-labeled ds oligo, 5% native PAGE in 1x TBE at room temperature; binding buffer, salt and pH not given (cited); protein in an extract
Sequence,"binding result ([1]; unlabeled MT does not compete with labeled K5HsII, label: unlabeled competitor)",binding result [2],binding result ([1]; unlabeled WT competes with labeled K5HsII)
GGCGGCCTTCAGCCTATATCAACACAT (double strand) [K5HsII Mut (MT)],no binding,–,–
GGCGGCCTTCAGCCTGTATCAACACAT (double strand) [K5HsII (WT)],–,binds,binds
